Laboratory results published in paper PMC10542350, “Structural basis of nucleosome deacetylation and DNA linker tightening by Rpd3S histone deacetylase complex” (Cell Research, 2023).

Assays:
[1] = molecular target: NCP^187bp (Xenopus laevis); test: native gel or EMSA; 150 nM NCP^187bp in 7 μL with Rpd3S and Hho1 titration (0, 12.5, 37.5, 112.5 μM); 4.5% native PAGE, 0.5× TBE, 4 °C; both purified
[2] = molecular target: NCP^187bp (Xenopus laevis); test: cryo-EM structure; reconstituted Rpd3S–NCP^187bp–Hho1 complex; consensus map of 6.2 Å; both purified

- binding [1]: binds
- binding [2]: binds
B1: Hho1 globular domain (residues 41–117) (domain or fragment, UniProt P53551 41-117)
chain: EASSKSYRELIIEGLTALKERKGSSRPALKKFIKENYPIVGSASNFDLYFNNAIKKGVEAGDFEQPKGPAGAVKLAK

These are yes or no findings as the source states them, for the method shown. Binding calls can cover weak binding; strength is not graded here.
